Results published in the supplement of paper PMC6411743.
± gives the standard deviation of the averaged measurements. This is one part of the list.

Amino acid sequences for entries named in this document (tags omitted). A change or cut given only in a name is not applied to a line headed by its entry.
UniProt Q16881, whole entry: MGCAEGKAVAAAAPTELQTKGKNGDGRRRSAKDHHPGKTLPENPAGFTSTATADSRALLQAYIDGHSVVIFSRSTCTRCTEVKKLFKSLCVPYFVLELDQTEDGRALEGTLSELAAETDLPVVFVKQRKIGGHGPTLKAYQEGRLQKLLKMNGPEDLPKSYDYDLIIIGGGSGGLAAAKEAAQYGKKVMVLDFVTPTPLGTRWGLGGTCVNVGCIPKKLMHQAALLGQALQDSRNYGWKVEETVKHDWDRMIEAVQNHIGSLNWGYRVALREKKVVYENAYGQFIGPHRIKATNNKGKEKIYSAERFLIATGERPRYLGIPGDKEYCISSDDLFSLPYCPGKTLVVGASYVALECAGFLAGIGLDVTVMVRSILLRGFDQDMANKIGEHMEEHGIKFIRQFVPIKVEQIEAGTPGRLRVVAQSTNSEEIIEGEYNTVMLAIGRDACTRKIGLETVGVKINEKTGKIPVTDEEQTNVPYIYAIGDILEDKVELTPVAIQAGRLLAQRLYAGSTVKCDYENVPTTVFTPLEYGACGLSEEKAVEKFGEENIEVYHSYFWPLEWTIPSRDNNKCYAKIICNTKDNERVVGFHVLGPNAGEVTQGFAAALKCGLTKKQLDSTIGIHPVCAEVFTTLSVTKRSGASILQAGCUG
UniProt O00221: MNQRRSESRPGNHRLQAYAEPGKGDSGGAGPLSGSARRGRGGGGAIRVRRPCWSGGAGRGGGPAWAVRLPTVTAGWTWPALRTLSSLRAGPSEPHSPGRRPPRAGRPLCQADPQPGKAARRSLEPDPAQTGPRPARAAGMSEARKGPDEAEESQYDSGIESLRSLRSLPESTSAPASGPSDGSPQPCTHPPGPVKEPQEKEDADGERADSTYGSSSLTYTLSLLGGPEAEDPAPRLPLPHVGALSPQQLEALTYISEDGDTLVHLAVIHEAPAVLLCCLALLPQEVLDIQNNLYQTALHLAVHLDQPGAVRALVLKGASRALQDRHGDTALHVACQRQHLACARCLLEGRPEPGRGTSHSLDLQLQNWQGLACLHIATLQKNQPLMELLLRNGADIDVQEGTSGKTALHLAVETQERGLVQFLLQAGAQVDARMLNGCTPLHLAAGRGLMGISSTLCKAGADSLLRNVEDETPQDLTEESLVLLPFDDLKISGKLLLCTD
UniProt Q9NZM4: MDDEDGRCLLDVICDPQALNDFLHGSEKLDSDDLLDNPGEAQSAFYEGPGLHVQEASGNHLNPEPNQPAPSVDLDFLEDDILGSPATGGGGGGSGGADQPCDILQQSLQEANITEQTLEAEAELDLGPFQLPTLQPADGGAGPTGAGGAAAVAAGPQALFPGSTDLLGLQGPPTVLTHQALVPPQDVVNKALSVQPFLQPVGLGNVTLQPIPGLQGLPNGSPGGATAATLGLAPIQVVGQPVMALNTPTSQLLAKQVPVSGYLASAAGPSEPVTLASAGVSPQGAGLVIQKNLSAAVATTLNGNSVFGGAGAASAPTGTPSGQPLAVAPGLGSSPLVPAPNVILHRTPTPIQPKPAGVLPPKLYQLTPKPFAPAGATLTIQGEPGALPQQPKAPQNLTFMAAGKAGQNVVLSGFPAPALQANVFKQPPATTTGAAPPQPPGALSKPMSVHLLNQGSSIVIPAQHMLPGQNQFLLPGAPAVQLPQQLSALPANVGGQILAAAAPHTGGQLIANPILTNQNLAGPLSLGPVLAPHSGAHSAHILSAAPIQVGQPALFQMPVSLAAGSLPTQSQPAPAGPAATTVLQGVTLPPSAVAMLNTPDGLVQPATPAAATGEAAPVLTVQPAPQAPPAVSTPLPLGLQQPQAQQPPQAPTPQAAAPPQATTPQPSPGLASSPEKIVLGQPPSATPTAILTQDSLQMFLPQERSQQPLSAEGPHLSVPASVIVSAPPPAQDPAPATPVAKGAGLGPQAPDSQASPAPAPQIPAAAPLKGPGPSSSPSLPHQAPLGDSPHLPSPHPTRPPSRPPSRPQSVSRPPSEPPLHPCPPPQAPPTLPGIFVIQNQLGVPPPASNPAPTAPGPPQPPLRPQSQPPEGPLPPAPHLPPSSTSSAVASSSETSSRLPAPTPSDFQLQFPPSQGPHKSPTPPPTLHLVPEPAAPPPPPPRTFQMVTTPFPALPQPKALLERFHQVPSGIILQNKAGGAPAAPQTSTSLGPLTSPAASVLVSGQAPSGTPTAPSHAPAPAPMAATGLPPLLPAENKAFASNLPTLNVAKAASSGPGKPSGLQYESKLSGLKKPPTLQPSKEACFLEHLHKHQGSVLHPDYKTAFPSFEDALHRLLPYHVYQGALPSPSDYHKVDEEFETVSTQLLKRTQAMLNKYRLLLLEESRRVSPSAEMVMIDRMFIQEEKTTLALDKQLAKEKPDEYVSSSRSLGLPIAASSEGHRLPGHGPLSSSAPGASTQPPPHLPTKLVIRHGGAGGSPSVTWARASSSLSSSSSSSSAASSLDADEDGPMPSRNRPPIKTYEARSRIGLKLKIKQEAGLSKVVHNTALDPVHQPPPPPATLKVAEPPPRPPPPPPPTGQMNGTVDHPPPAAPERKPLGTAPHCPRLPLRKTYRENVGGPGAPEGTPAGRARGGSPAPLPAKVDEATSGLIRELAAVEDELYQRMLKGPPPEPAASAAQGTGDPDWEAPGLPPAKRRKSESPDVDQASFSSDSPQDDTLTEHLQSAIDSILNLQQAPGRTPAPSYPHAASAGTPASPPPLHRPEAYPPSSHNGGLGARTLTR
UniProt Q9BSV6: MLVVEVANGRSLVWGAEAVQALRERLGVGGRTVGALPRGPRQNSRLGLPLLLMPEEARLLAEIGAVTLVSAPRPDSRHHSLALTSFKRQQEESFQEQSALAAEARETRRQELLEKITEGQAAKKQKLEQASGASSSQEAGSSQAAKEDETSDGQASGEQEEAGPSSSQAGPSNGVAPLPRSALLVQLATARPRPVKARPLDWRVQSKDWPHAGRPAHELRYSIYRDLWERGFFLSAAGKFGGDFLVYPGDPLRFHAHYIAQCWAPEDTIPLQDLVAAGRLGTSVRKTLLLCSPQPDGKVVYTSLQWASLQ
UniProt O60333: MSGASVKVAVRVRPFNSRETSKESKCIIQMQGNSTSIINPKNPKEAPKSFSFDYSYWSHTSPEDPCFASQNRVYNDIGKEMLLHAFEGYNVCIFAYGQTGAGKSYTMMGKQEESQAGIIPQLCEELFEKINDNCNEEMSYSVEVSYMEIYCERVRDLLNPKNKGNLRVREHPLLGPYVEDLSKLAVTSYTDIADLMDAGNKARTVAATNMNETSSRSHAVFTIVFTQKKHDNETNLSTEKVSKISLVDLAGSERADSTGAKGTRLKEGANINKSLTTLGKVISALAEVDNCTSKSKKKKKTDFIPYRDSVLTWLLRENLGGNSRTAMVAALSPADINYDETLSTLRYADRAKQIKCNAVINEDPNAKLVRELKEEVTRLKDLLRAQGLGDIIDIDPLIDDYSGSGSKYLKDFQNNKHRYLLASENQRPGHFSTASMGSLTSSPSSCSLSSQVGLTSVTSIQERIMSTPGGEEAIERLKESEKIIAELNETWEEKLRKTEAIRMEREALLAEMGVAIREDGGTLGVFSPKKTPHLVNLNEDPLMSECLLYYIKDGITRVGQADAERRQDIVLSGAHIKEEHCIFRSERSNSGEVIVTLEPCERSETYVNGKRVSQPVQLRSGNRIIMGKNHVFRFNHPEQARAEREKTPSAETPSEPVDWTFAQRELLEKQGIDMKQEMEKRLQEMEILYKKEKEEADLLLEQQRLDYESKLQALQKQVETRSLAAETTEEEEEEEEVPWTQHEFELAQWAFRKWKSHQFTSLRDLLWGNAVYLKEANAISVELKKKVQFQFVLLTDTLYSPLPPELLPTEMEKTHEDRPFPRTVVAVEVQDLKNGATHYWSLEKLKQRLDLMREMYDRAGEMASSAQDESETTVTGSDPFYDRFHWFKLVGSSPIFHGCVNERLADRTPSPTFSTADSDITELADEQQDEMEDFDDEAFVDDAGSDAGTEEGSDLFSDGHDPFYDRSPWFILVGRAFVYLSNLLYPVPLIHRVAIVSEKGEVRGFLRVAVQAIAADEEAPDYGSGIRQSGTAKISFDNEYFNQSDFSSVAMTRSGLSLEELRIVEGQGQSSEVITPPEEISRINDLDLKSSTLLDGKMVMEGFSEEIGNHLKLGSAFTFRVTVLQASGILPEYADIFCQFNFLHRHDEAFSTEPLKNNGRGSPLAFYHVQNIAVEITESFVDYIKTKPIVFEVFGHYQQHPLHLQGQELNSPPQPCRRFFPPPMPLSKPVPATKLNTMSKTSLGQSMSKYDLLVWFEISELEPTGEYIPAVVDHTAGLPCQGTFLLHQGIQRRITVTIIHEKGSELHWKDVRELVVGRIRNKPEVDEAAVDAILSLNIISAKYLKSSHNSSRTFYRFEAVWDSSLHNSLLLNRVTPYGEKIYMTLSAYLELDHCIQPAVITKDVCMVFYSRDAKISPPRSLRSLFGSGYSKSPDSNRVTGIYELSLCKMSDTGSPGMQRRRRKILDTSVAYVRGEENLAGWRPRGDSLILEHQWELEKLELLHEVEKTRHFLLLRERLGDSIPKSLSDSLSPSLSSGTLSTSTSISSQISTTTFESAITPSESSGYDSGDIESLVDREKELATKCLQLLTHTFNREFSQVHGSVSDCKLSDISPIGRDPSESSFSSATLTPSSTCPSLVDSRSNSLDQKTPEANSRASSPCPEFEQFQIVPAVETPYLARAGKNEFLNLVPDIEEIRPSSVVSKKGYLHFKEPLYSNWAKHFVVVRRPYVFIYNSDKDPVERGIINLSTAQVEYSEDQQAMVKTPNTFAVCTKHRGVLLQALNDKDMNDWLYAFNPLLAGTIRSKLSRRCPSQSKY
UniProt Q8WWP7: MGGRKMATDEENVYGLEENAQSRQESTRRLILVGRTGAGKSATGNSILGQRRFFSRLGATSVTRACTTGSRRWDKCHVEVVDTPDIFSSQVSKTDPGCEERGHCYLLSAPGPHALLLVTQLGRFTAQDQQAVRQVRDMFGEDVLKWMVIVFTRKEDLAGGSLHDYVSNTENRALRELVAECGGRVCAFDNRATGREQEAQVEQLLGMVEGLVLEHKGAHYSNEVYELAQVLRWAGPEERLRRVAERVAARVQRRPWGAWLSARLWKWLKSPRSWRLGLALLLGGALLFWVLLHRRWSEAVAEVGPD

Compound: Nc1nc2c(ncn2[C@@H]2O[C@H](COP(=O)(O)OP(=O)(O)OP(=O)(O)O)[C@@H](O)[C@H]2O)c(=O)[nH]1 [guanosine triphosphate]
Assay: NP40-soluble protein abundance relative to vehicle (solubility fold change) (ratio); higher = more soluble protein in presence of GTP
In short: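 Each value is a fold change relative to the detergent-processed vehicle, calculated per replicate from vsn-normalised intensities. Jurkat crude lysate received eight concentrations (0.1 to 10 mM) for 10 min at room temperature and 3 min at 37 °C, then was solubilised in 0.8% NP40 with benzonase (60 min, 4 °C). The ultracentrifuged supernatant was TMT-labelled and run by LC-MS/MS in three independent experiments.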

Target	NP40-soluble protein abundance (concentration: 0.1mM)	NP40-soluble protein abundance (concentration: 0.5mM)	NP40-soluble protein abundance (concentration: 1mM)	NP40-soluble protein abundance (concentration: 2mM)	NP40-soluble protein abundance (concentration: 4mM)	NP40-soluble protein abundance (concentration: 6mM)	NP40-soluble protein abundance (concentration: 8mM)	NP40-soluble protein abundance (concentration: 10mM)
A0A087WSW9|A0A087WSY9|E9PIR7 and related entries (UniProt Q16881)	0.99 ± 0.03	1.01 ± 0.041	0.918 ± 0.026	0.928 ± 0.049	0.88 ± 0.037	0.9 ± 0.041	0.847 ± 0.022	0.854 ± 0.059
A0A075B716|H0YN88 and related entries (UniProt P08708)	0.994 ± 0.11	0.983 ± 0.12	1.07 ± 0.23	1.04 ± 0.31	0.939 ± 0.32	0.866 ± 0.33	0.77 ± 0.26	0.844 ± 0.3
A0A087WVX9|O00221 and related entries (UniProt O00221)	1.01 ± 0.085	0.953 ± 0.027	0.958 ± 0.049	0.966 ± 0.049	0.964 ± 0.11	0.966 ± 0.12	0.974 ± 0.095	0.914 ± 0.088
A0A087WWH3|Q9NZM4 and related entries (UniProt Q9NZM4)	1.06 ± 0.018	0.989 ± 0.1	1.16 ± 0.19	1.22 ± 0.1	1.22 ± 0.15	1.13 ± 0.33	1.2 ± 0.44	1.33 ± 0.38
A0A024R4N9|A0A0G2JNK5|A9C4B9 and related entries (UniProt Q9BSV6)	1.08 ± 0.069	0.9936 ± 0.0093	1.01 ± 0.088	0.961 ± 0.045	0.967 ± 0.048	1.01 ± 0.031	1.03 ± 0.034	0.966 ± 0.016
A0A087WWA3|O60333 and related entries (UniProt Q4R9M9+O60333)	1.11 ± 0.085	1.09 ± 0.15	1.1 ± 0.17	1.03 ± 0.093	1.04 ± 0.092	0.99 ± 0.1	1.05 ± 0.13	0.965 ± 0.11
A0A087WTJ2|Q8WWP7 (UniProt Q8WWP7)	1.03 ± 0.021	1.01 ± 0.017	0.967 ± 0.0097	0.956 ± 0.025	0.947 ± 0.053	0.911 ± 0.025	0.889 ± 0.067	0.885 ± 0.06
